Measured values from PubChem BioAssay AID2685 (National Center for Advancing Translational Sciences (NCATS), 2010).
The other results are listed elsewhere or left out. The main result of the screen is listed elsewhere. These columns were measured beside it and carry no call. The list favours compounds with an active or inconclusive main result. Potencies come from curve fits of mixed quality, noted in brackets.

Assay: qHTS Assay for Lipid Storage Modulators in Drosophila S3 Cells;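 as to cell number change: cells counted by Cell Tracker Red CMTPX staining in the red channel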
Details: BODIPY lipid droplet fluorescence, 18-24 h; for cell number change: measured here: cell count max response, cells fed with added oleic acid
Outline: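 Drosophila S3 cells got compounds at several concentrations plus oleic acid (400 uM solution). Laser-scanning cytometry with 488 nm excitation read lipid droplets at 500-530 nm and cells at 575-640 nm. Percent activity was relative to 20 uM Triacsin C.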

[1] = measured here: cell number channel AC50, cells fed with added oleic acid
[2] = measured here: lipid fluorescence (Fed channel) AC50, cells fed with added oleic acid

SMILES | cell number change [%] | AC50 [1] | AC50 [2]
O=C(Nc1ccc(Oc2ccccc2)cc1)c1ccc(Cn2c(=O)[nH]c3ccsc3c2=O)cc1 | -31.7 | 8.2 µM [falling, partial curve] | 6.51 µM [falling, single point]
Cc1c(NC(=O)C(C)OC(=O)CC2CC3CCC2C3)c(=O)n(-c2ccccc2)n1C (stereo not drawn) | -28.8 | – | 29.1 µM [falling, single point]
Cc1ccc(S(=O)(=O)/C(C#N)=C/c2c(N3CCN(C)CC3)nc3ccccn3c2=O)cc1 | 0.779 | – | 6.51 µM [falling, single point]
COc1ccc(/C(N)=N/OC(=O)Cc2ccc(C)cc2)cc1OC | -2.54 | – | –
O=C(Cn1nnc(-c2ccc(F)cc2)n1)OCC(=O)c1ccccc1 | – | 0.731 µM [falling, full curve] | 6.51 µM [falling, partial curve, poor fit]
CC(=O)c1cn(CC(=O)NCc2ccc3c(c2)OCO3)c2ccccc12 | -25.1 | – | 11.6 µM [falling, partial curve, poor fit]
Nc1[nH]n(-c2ccccc2)c(=O)c1N=Nc1ccccc1 | -41.5 | 29.1 µM [falling, single point] | 29.1 µM [falling, single point]
Cc1ccc(C(=O)c2cc(C)sc2N)cc1 | -32 | 29.1 µM [falling, single point] | –
COC(=O)C(CC(=O)c1ccccc1)CC(=O)c1ccccc1 | 10.6 | – | –
CCCn1c(=O)n(CC(=O)NCC2CCCO2)c(=O)c2c3c(sc21)COC(C)(C)C3 (stereo not drawn) | 6.27 | – | 29.1 µM [rising, single point]
COCCCN(C(=S)NC(=O)c1ccc(Br)cc1)c1c(N)n(Cc2ccccc2)c(=O)[nH]c1=O | 24.1 | – | 5.8 µM [falling, partial curve, poor fit]
CCOC(=O)c1ccc(NC(=O)c2ccccc2)cc1 | 2.51 | – | 18.4 µM [rising, single point]
COc1cccc(OCCOc2cccc(/C=N/n3cnnc3)c2)c1 | 77.5 | 9.2 µM [rising, partial curve, poor fit] | 13 µM [rising, partial curve]
CCN(CC)CCn1c(NCc2nc3ccccc3n2Cc2ccccc2)nc2ccccc21 | -0.59 | – | –
COC(=O)c1nc2n(n1)C(c1cc(OC)ccc1OC)C(C(=O)OC1CCCCC1)=C(C)N2 (stereo not drawn) | -17 | – | 29.1 µM [falling, single point]
COc1cc(/C=N/NC(N)=S)ccc1OCC(=O)Nc1ccc(C)cc1 | -35.3 | 32.6 µM [falling, single point] | –
Cc1cc(NC(=O)CSc2ncnc3sc4c(c23)CCC(C)C4)no1 (stereo not drawn) | 22.7 | – | 3.66 µM [rising, single point]
CSc1ccccc1NC(=O)COC(=O)Cc1cccs1 | -31.9 | 22.4 µM [falling, partial curve] | 35.5 µM [falling, single point]
CC1(NC(=O)Cc2csc(-c3cccc(Cl)c3)n2)CCS(=O)(=O)C1 (stereo not drawn) | 40.7 | 13 µM [rising, partial curve, poor fit] | 0.00461 µM [rising, full curve, poor fit]

Exported as labelled records: part of the list above
Cc1cc(NC(=O)CSc2ncnc3sc4c(c23)CCC(C)C4)no1 (stereo not drawn)
  cell number change [%]: 22.7; AC50 [2]: 3.66 µM [rising, single point]
CSc1ccccc1NC(=O)COC(=O)Cc1cccs1
  cell number change [%]: -31.9; AC50 [1]: 22.4 µM [falling, partial curve]; AC50 [2]: 35.5 µM [falling, single point]
CC1(NC(=O)Cc2csc(-c3cccc(Cl)c3)n2)CCS(=O)(=O)C1 (stereo not drawn)
  cell number change [%]: 40.7; AC50 [1]: 13 µM [rising, partial curve, poor fit]; AC50 [2]: 0.00461 µM [rising, full curve, poor fit]

(more compounds)

SMILES | cell number change [%] | AC50 [1] | AC50 [2]
COc1ccccc1NC(=O)c1ccc(CS(=O)(=O)c2ccc(C)cc2)cc1 | 7.53 | – | –
COc1ccc2oc(C(=O)OCC(=O)NCC3CCCO3)c(C)c2c1 (stereo not drawn) | – | 7.31 µM [rising, single point] | 8.2 µM [rising, partial curve, poor fit]
COc1ccc(NC(=O)c2cc(-c3ccco3)nc3ccccc23)cc1S(=O)(=O)N1CCOCC1 | -15.9 | 0.651 µM [falling, full curve, poor fit] | –
Cc1cccc(-n2c(N)cc(=O)[nH]c2=S)c1C | -3.94 | – | 32.6 µM [falling, single point]
Cc1c(CC(=O)N2CCC(C(=O)O)CC2)c(=O)oc2cc3c(cc12)CCC1(CCCCC1)O3 | 13 | – | 6.51 µM [rising, single point]
Cc1ccc(Oc2ccc(-c3nc(N)nc(N)n3)cc2)cc1C | -27.3 | 3.66 µM [falling, full curve, poor fit] | 29.1 µM [falling, single point]
OC(COc1ccccc1)Cn1c2ccccc2c2ccccc21 (stereo not drawn) | -29.3 | – | 20.6 µM [falling, partial curve]
COc1ccc(N2C(=O)c3ccccc3NC2c2ccc(OC)c(CSc3ccccn3)c2)cc1 (stereo not drawn) | – | – | 2.06 µM [falling, partial curve, poor fit]
Cc1ccc(C)c(Oc2ccc(S(=O)(=O)N3CCN(C)CC3)cn2)c1 | -2.09 | – | –
O=S(=O)(Nc1ccncc1)c1ccccc1 | -5.49 | – | 29.1 µM [falling, single point]
COc1ccc(C(=O)N/N=C/c2ccc(OC)c(COc3ccccc3)c2)cc1 | 26.5 | 1.64 µM [falling, partial curve] | 29.1 µM [rising, single point]
CCOc1ccc(N2CC(C(=O)Nc3cc(Cl)ccc3-n3cncn3)CC2=O)cc1 (stereo not drawn) | 18.3 | 0.92 µM [rising, partial curve, poor fit] | 6.51 µM [rising, single point]
Cc1nc(NC(=O)Nc2ccc(Cl)cc2)sc1C | 60.1 | 13 µM [rising, partial curve] | –
O=C1CCCC(NCCCCCCNC2=C([N+](=O)[O-])C(=O)CCC2)=C1[N+](=O)[O-] | -24.1 | 4.11 µM [falling, full curve, poor fit] | 14.6 µM [falling, partial curve]
COc1ccc(Cl)cc1C(=O)O/N=C(\N)c1ccc(Cl)cc1 | -2.73 | – | 20.6 µM [rising, single point]
Cc1ccc2c(c1)N(CC(=O)N1CCCC(C)C1)C(=O)CO2 (stereo not drawn) | 5.13 | – | –
CCc1noc(C)c1C(=O)N1CCN(S(=O)(=O)c2ccc(C)cc2)CC1 | 17.7 | – | –
Cc1sc2ncnc(N3CCOCC3)c2c1C | – | – | 6.51 µM [rising, single point]
O=S(=O)(NCCc1csc(-c2cccnc2)n1)c1ccc2c(c1)OCCO2 | – | – | 6.51 µM [rising, single point]

SMILES | cell number change [%] | AC50 [1] | AC50 [2]
Cc1ccc(CNS(=O)(=O)c2ccc3c(c2)n(C)c(=O)n3C)cc1 | -16.3 | – | 20.6 µM [falling, partial curve, poor fit]
Cc1cccc(C)c1N(Cc1ccccc1F)S(C)(=O)=O | 1.25 | – | –
CC(C)(C)c1ccc(S(=O)(=O)N2C=CC(C(F)(F)F)=NCC2)cc1 | -24.7 | – | 29.1 µM [rising, single point]
COCCNC(=O)c1ccccc1-c1ccccc1C(=O)O | 6.47 | – | 0.92 µM [falling, full curve, poor fit]
Cc1ccc2cc(CCNC(=O)c3cccc([N+](=O)[O-])c3)c(=O)[nH]c2c1C | 32 | 10.3 µM [rising, partial curve] | –
O=C(NCc1ccc(S(=O)(=O)NC2CCCCC2)s1)c1ccccc1 | -7.8 | 0.184 µM [falling, full curve, poor fit] | 0.146 µM [falling, full curve, poor fit]
Cn1ncc2c(N3CCN(c4ccc(Cl)c(Cl)c4)CC3)ncnc21 | -7.08 | – | 16.4 µM [falling, single point]
COc1cccc(C2=NOC(C(=O)Nc3ccccc3SC)C2)c1 (stereo not drawn) | 23.2 | 0.731 µM [rising, full curve, poor fit] | 6.51 µM [rising, single point]
CN1C(=O)C(Cc2cnc[nH]2)NC1=S (stereo not drawn) | 6.94 | – | 29.1 µM [falling, single point]
CC(C)(C)c1ccc(OCCCn2ccnc2)cc1 | -70.1 | 20.6 µM [falling, partial curve] | 2.31 µM [falling, partial curve]
CCCN(CCC)C(=O)c1cc([N+](=O)[O-])cc2c1-c1ccc([N+](=O)[O-])cc1C2=C(C#N)C#N | 5.92 | 0.092 µM [rising, full curve, poor fit] | –
CN(C)CCCN1C(=O)C(=O)/C(=C(/O)c2ccc3c(c2)OCCO3)C1c1ccco1 (stereo not drawn) | -1.71 | – | 0.00461 µM [falling, full curve, poor fit]
O=C(NC1CCCC1)c1ccc(Cl)s1 | – | – | 29.1 µM [rising, single point]
O=C(NCC(c1ccc(F)cc1)N1CCOCC1)c1nn(-c2ccccc2)c(=O)c2ccccc12 (stereo not drawn) | -17.1 | – | 14.6 µM [falling, partial curve, poor fit]
COc1ccc(N(CCC(=O)NCCc2ccccc2)S(=O)(=O)c2ccc(C)cc2C)cc1 | 6.52 | – | 11.6 µM [falling, partial curve]
COc1ccc(N(C)C(=O)c2onc3c2CCCC3)cc1 | 10.7 | – | 32.6 µM [falling, single point]
CC(C)c1nc(SCc2c(F)cccc2Cl)c2c(=O)n(C)c(=O)n(C)c2n1 | – | 1.84 µM [rising, partial curve] | –
CC(=O)Nc1sc(NC(=O)c2ccco2)nc1-c1cccs1 | 11.3 | – | 6.51 µM [falling, single point]
Cc1c(NC(=O)CSc2cccc3cccnc23)c(=O)n(-c2ccccc2)n1C | -22.8 | – | 0.58 µM [rising, single point]
